Assay results reported in US20020142359A1 (AstraZeneca / MedImmune, published 2002).
No constants are given. Whether binding was seen depends on the method and setting. Some binding calls cover weakened binding; strength is not graded here.

By UniProt entry, the sequences of proteins in these tests, tags left out. Residues count along the entry.
UniProt P06731, residues 35-685: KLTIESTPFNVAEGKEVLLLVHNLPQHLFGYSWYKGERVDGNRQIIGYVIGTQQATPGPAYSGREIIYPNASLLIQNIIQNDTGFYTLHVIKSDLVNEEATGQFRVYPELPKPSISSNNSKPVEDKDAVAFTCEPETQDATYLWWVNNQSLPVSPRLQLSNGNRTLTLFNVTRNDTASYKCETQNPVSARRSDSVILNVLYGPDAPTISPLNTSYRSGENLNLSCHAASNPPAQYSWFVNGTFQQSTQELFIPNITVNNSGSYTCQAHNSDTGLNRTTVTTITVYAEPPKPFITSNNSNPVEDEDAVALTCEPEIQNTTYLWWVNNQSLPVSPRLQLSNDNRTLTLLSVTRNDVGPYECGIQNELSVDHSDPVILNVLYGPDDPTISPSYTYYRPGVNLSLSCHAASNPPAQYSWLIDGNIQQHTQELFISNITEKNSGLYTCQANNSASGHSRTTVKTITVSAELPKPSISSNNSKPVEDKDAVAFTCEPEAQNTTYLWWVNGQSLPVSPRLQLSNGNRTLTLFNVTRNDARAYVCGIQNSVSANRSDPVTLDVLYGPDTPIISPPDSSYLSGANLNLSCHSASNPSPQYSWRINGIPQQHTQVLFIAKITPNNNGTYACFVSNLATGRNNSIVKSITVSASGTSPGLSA

Molecular target: CEA (Carcinoembryonic antigen), purified antigen (UniProt P06731)
Test: CEA ELISA on NS0 culture supernatants (Example 44)

B1: humanised 806.077 HuVH1/HuVK3 HuIgG3 F(ab')2 (antibody, V domains shown)
VH: EVQLQQSGPGLVRPSQTLSLTCTASGFNIKDNYMHWVRQPPGRGLEWIGWIDPENGDTEYAPKFRGRVTMLADTSKNQFSLRLSSVTAADTAVYYCHVLIYAGYLAMDYWGQGTLVTVSS
VL: QIVLTQSPSSLSASVGDRVTITCSASSSVTYMHWYQQKPGKAPKLLIYSTSNLASGVPSRFSGSGSGTDYTFTISSLQPEDIATYYCQQRSTYPLTFGQGTKLEIKR
**Q.** How did the binding turn out when B1 was run?
**A.** binds
